Source: article PMC3293916
No constants are given. Whether binding was seen depends on the method and setting. Binding seen in cells or lysates may run through a third protein. These calls come from enrichment with a bait or labelling near it, and not all partners need be listed. Where a sequence is shown, tags or fusion partners need not be part of it. Blank lines part the entries; values can stand above or below the molecule they belong to.

Protein sequences, listed by entry. Tags and fused reporters are not part of them.
UniProt Q10428: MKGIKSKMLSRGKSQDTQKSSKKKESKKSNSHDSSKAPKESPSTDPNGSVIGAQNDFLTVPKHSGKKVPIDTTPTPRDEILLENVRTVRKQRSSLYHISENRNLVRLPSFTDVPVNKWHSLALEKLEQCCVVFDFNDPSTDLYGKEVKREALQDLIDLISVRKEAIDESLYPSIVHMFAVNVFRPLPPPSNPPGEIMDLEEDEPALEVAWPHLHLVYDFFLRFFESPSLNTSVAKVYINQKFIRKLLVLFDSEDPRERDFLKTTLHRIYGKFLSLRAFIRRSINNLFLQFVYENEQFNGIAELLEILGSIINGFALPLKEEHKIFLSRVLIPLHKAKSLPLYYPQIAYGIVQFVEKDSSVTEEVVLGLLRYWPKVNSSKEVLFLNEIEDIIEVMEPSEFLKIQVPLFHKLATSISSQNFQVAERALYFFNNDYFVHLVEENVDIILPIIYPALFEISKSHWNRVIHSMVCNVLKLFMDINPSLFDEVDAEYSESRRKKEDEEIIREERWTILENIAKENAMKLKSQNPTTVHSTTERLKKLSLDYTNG
UniProt P23635: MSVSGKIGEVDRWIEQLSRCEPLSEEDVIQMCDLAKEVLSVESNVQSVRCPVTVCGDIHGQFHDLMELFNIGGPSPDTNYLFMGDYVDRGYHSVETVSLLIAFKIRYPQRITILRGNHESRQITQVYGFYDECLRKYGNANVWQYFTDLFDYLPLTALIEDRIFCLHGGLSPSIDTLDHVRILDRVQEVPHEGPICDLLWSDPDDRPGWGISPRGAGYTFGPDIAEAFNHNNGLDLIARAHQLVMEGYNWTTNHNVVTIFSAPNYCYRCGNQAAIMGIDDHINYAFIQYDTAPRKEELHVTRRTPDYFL
UniProt P23636: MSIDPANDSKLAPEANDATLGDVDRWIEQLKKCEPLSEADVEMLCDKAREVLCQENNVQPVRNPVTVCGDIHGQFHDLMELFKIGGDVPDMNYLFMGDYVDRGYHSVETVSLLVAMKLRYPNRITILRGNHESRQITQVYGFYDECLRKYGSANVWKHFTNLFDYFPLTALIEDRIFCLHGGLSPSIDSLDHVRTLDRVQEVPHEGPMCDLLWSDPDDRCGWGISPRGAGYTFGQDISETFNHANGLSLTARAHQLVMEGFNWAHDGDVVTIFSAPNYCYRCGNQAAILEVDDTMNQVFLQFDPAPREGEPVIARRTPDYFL

Target: T1, Paa1-PK, structural (A) subunit of the PP2A complex tagged with the PK epitope (S. pombe) (UniProt Q9UT08)
T1 sequence: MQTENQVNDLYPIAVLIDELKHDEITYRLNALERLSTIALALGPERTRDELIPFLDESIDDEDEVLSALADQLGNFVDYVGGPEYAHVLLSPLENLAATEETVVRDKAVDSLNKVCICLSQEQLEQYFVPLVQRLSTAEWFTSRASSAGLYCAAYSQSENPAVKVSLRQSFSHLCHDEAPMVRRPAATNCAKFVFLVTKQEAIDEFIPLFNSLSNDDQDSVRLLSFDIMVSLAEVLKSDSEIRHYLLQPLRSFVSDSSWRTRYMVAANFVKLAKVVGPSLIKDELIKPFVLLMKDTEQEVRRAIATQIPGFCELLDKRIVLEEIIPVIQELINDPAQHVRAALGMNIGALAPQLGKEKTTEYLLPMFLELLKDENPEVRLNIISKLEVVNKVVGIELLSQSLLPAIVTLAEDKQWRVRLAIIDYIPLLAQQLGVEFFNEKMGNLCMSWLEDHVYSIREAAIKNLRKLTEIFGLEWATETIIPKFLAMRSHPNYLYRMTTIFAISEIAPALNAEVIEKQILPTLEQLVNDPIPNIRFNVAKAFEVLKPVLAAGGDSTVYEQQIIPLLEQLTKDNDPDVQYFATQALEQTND
Assay: affinity purification with mass spectrometry; extracts of exponentially growing Paa1-PK cells (untagged wild type as control) precipitated with mouse anti-PK antibody cross-linked to Protein A Dynabeads, 4°C, 60 min, IP buffer (25 mM Tris pH 7.5, 0.1% Nonidet P-40, 150 mM NaCl); SDS-PAGE, silver stain, bands excised and identified by tandem mass spectrometry; repeated four times

Molecule: Par1, regulatory B′ subunit of PP2A (from UniProt Q10428 1-548)
- binding: binds

Molecule: Ppa1, catalytic subunit of PP2A (from UniProt P23635 1-309) (enzyme)
- binding: binds

Molecule: Ppa2, catalytic subunit of PP2A (from UniProt P23636 1-322) (enzyme)
- binding: binds

Now from value to molecule:

- binding: binds
B1: SPBP8B7.08c, homologue of the leucine carboxyl methyltransferase Ppm1 (enzyme, UniProt O94257 1-310)
chain: MDITETDLDALKCRSSATKSGYIHDPFIKFFSPSRNSHKPPIINRGTYVRTWSIDHILQKFIESFDGKKQIISLGAGTDTRVFRYISEYGPENLKFIEFDFYPNCIRKIRTIEKHEALKQNIGDYVVDISGGSLVSGSLDIYSYDIREIVHKGFPGFVDFSLPTIVLSECCLCYLEPEEASSLCRWFQNMFATSGIVVYEPIQGMDNFGKMMKANLSARGVILKTLDCYETTEQQRMRFLDYGYSEVIAEDFLTIEETWIPIEEKKRTMSIEMLDELEEWQLLAKHYCLTFAATENLWNQIILQLPHLKT

- binding: binds
B2: Pta2 (SPAC1782.05), homologue of the PP2A phosphatase activator (PTPA) (protein, UniProt Q9P7H4 1-352)
chain: MLSREEQNRCFVPVRRILDNEDLKLFKEGDAYKLIDSFICDLDEAVKDKPISASIPQSSSIEHVLNILDRVGEIKQENPAIDNMGSRFGNPAFQSFYDQVYIETPKLHQVFGIEHNAAMEAGRYFYESFGNRKRIDYGSGHELYFMSWLLILKQLGIFTKNDYPALVVRVFVKYVELMRSLQIFYTLEPAGSHGVWGLDDFHFLPFLFGAAQLVNHKYLRPKHVRDPEILEMCRADYMYLGYVYFLNKLKPSVSLRFHSPMIDDISAVKTWSKVNEGMIKMYRAEVLGKLPIMQHYLFGHLIPASPGMSPAPQDGDDSEVTHVHSHYADCCGIKIPSAISAAKNNGSRIPFD
